The record followed here is publication PMC12311239.

Amino acid sequences for entries named in this document (tags omitted).
UniProt Q96RR4: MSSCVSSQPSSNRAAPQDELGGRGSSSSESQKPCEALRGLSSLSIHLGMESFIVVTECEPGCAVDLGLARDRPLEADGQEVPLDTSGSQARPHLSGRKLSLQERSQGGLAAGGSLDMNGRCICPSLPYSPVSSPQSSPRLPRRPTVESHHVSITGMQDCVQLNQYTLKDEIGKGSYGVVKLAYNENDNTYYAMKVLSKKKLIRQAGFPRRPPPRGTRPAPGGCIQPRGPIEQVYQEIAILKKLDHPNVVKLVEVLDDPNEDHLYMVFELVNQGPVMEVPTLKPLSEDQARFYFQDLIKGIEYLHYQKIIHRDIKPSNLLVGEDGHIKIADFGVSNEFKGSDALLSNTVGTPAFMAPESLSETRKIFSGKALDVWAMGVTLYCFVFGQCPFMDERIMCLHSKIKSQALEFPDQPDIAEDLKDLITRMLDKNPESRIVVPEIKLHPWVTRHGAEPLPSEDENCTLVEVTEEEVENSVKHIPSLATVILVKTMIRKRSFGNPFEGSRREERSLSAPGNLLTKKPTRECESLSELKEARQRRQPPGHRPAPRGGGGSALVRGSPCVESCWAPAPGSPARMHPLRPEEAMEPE
UniProt P48539: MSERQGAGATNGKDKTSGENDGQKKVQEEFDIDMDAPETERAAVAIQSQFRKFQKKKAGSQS

No constants are given. Whether binding was seen depends on the method and setting. In cells and extracts the contact can be indirect.

The test addresses Calcium/calmodulin-dependent kinase kinase 2 (human (endogenous in LNCaP and C4-2B)) (UniProt Q96RR4). In words: co-IP; total lysates of LNCaP and C4-2B cells; IgG as negative control; also after PCP4 siRNA in LNCaP and PCP4 overexpression in C4-2B (Figure 6G); which antibody precipitated is not given.

Turning to “Purkinje cell protein 4 (from UniProt P48539 1-62)”, the binding result was “no binding”.
